This is one part of the list.
Experiments:
Assay in all cases: log2 fold change, soluble protein after heating vs DMSO (PISA); higher = thermal stabilisation; K562 lysate, 10 uM; active = over 0.2 and 3.5 SD of the protein, either way, in both replicates (recomputed)
alvocidib = compound: CN1CC[C@H](c2c(O)cc(O)c3c(=O)cc(-c4ccccc4Cl)oc23)[C@H](O)C1 [alvocidib]
Outline: (§1)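 The values are log-two fold changes in thermal stability compared with solvent controls and come from duplicates. They were obtained by TMTpro 16plex LC-MS/MS, with channel sums equalised, on the supernatant after 21,000xg for 90 min. That supernatant came from crude K562 extract at 1 mg/mL protein treated with 10 μM compound for 30 min, heated for 3 min across 48°C-58°C, pooled and brought to 0.5% NP-40 at 4°C.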

Protein sequences, listed by entry. Tags and fused reporters are not part of them. Lines headed by an entry give the natural chain unless they say otherwise; changes in a name come on top.
UniProt Q70Z53: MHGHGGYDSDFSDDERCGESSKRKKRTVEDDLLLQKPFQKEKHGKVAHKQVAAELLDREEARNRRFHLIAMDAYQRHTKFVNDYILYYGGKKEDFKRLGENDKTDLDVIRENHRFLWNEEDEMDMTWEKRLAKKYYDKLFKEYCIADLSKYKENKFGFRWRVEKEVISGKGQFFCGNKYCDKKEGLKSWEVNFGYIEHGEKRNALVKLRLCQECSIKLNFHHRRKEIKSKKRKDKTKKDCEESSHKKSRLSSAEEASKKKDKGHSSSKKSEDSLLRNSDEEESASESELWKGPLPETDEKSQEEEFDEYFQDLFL
UniProt Q6NT46: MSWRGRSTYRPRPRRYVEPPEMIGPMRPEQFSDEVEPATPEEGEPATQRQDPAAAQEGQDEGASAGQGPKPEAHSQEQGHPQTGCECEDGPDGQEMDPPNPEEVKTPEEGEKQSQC
UniProt O94915: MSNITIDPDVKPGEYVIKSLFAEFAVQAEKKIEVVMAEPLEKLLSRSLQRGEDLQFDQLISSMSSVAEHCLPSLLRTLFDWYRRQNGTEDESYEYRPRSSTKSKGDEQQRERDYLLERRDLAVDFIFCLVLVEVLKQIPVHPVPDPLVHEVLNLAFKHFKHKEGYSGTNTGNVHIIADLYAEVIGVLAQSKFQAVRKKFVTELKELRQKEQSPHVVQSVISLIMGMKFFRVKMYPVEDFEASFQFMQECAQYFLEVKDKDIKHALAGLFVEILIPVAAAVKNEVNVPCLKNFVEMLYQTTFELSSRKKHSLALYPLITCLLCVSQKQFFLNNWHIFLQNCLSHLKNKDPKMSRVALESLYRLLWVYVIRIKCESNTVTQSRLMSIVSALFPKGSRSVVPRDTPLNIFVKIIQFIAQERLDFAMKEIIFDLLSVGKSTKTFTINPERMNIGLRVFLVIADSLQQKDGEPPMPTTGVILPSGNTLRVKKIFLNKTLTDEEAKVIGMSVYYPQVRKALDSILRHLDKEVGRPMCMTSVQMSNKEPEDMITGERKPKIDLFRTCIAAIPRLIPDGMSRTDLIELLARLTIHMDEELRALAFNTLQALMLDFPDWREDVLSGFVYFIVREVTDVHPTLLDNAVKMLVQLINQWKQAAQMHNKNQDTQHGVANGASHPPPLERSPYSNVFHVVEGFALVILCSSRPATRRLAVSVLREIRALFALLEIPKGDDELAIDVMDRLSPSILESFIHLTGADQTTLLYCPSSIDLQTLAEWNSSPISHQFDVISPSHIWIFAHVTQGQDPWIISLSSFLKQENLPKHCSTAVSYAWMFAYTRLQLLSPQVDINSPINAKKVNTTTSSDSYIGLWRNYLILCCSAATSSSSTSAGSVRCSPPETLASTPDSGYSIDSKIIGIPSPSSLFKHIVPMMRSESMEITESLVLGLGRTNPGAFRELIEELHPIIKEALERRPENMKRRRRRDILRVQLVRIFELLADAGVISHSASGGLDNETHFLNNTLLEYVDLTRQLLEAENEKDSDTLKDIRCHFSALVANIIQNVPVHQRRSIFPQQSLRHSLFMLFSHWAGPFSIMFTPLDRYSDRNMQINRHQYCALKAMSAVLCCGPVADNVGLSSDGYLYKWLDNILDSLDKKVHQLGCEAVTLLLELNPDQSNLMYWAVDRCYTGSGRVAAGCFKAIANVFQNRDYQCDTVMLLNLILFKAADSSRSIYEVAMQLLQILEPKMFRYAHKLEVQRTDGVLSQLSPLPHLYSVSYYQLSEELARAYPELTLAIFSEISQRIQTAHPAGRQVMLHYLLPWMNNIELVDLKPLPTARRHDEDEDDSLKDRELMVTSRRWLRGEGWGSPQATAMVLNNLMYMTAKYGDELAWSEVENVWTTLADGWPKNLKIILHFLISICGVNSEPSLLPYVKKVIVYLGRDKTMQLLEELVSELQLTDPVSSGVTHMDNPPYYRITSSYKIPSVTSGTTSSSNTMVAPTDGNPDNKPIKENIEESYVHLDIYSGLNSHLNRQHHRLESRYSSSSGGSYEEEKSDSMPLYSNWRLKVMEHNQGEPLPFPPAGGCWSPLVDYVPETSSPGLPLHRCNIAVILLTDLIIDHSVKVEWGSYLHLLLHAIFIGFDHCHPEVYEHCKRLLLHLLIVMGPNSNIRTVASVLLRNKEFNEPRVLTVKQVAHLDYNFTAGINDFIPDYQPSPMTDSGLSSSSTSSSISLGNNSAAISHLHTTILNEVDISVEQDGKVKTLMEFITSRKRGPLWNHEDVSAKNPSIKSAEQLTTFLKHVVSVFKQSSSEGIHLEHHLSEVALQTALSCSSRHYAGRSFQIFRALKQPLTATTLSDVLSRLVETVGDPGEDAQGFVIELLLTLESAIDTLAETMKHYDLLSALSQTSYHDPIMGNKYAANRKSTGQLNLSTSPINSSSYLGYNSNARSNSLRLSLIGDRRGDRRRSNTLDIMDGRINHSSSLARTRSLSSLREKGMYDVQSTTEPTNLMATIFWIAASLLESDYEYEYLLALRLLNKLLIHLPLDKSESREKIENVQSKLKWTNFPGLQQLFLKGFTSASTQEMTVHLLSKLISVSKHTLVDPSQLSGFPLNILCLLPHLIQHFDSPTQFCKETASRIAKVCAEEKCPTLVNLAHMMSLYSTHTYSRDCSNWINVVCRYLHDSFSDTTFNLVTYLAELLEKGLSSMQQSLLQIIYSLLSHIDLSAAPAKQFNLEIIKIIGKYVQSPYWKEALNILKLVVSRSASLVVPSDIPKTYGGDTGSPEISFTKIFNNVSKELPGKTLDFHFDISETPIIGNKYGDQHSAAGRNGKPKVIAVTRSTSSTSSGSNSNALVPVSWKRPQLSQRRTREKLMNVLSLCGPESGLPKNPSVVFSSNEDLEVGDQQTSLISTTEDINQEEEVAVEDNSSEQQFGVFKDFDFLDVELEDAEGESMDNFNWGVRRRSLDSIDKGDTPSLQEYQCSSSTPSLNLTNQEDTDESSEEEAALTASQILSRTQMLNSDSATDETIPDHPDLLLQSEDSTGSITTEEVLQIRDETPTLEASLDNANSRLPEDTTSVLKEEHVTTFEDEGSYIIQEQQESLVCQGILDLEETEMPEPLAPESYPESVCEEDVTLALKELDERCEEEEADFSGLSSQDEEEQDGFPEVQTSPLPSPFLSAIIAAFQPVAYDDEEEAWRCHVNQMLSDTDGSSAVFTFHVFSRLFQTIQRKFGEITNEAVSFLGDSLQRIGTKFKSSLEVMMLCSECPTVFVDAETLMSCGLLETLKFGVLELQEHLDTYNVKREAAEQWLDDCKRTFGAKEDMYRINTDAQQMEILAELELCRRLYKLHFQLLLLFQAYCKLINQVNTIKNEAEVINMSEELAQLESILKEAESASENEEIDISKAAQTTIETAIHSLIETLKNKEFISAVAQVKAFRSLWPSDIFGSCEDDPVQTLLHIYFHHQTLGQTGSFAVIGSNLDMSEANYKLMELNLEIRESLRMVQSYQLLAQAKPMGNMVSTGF
UniProt Q9UPW0: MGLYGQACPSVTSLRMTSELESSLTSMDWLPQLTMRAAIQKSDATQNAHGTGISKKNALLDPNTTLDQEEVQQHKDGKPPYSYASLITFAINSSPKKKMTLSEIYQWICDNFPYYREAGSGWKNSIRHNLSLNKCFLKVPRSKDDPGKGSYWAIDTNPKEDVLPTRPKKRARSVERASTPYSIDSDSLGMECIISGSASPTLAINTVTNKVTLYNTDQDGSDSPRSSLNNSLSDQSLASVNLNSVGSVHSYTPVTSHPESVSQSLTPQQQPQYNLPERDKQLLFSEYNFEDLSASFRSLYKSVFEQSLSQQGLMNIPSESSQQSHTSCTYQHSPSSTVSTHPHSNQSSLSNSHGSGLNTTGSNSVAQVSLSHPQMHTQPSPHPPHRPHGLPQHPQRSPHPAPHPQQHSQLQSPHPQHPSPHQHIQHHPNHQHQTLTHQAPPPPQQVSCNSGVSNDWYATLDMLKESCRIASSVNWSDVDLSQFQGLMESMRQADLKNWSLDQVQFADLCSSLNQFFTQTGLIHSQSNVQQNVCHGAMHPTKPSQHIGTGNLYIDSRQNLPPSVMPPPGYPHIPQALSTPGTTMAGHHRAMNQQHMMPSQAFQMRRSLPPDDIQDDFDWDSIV
UniProt P51570: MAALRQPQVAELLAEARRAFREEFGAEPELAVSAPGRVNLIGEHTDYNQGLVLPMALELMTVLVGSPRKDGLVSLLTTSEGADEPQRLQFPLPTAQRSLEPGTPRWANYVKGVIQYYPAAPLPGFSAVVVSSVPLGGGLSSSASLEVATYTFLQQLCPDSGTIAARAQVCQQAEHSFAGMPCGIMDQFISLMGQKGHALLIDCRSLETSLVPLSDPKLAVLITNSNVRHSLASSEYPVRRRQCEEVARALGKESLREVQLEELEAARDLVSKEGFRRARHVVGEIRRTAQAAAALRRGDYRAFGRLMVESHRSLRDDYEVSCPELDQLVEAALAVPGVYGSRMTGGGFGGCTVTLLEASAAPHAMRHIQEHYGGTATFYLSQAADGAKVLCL
UniProt P04066: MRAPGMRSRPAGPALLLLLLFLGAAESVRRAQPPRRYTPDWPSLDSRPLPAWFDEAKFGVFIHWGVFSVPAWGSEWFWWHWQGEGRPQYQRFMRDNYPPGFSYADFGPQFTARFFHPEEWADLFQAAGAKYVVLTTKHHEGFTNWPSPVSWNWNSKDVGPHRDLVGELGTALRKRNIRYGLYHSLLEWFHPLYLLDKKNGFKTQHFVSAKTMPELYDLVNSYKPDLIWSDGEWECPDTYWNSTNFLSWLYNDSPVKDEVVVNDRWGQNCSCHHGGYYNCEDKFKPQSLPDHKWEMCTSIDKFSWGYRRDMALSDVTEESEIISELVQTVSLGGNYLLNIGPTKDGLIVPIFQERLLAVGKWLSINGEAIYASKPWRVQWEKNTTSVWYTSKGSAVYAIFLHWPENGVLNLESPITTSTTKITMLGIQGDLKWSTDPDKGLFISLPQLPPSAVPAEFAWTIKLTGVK
UniProt P57678: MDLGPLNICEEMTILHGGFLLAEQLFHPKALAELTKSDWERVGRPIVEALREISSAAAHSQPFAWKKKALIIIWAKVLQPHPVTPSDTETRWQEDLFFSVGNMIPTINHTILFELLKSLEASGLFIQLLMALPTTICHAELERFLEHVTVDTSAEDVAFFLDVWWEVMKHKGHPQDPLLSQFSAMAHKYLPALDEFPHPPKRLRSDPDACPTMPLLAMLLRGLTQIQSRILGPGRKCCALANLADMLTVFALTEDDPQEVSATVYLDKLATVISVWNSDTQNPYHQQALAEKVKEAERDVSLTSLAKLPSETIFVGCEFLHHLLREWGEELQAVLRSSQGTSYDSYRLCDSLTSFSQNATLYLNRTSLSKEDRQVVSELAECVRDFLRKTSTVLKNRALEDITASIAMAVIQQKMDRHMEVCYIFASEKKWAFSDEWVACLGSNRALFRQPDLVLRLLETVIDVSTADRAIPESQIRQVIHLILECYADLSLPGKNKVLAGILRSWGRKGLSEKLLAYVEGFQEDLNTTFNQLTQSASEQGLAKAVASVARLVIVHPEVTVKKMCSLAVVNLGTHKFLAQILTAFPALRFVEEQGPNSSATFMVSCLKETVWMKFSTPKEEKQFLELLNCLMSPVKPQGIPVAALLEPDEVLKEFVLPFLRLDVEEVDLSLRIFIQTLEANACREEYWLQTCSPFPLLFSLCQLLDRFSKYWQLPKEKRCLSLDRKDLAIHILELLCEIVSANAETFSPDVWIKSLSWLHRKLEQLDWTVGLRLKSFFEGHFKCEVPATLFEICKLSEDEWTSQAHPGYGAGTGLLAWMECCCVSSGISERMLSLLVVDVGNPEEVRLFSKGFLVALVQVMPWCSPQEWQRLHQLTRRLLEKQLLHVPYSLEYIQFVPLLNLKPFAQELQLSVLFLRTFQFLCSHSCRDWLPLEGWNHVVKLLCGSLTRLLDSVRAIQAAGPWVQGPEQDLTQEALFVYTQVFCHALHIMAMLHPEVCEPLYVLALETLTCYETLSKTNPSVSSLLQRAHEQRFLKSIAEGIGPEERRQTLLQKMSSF
UniProt Q7L5D6: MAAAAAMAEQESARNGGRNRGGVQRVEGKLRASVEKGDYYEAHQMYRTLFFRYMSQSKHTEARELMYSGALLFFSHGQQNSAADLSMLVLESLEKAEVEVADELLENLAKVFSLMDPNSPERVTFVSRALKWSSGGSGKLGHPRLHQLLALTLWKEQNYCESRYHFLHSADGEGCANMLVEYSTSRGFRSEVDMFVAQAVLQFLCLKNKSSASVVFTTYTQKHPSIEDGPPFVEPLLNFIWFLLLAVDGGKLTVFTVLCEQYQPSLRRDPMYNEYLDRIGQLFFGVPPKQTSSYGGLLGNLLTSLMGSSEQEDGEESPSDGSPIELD
UniProt P60520, whole entry, looked up: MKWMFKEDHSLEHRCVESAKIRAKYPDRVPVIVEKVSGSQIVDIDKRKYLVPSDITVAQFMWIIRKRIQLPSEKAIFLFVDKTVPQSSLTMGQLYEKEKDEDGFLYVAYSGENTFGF

Tubastatin A = compound: CN1CCc2c(c3ccccc3n2Cc2ccc(C(=O)NO)cc2)C1 [Tubastatin A]
Outline: as §1

[1] = compound: CNC(=O)C1=CC=CC=C1NC2=NC(=NC=C2Cl)NC3=C(C=C(C=C3)N4CCOCC4)OC
Outline: as §1

defactinib = compound: CNC(=O)c1ccc(Nc2ncc(C(F)(F)F)c(NCc3nccnc3N(C)S(C)(=O)=O)n2)cc1 [defactinib]
Outline: as §1

[2] = compound: CNc1nc(-c2ccc3c(N)n[nH]c3c2)cc(N2C[C@@H](C(=O)NC3CCCCC3)CC[C@H]2C)n1
Outline: as §1

encorafenib = compound: COC(=O)N[C@@H](C)CNc1nccc(-c2cn(C(C)C)nc2-c2cc(Cl)cc(NS(C)(=O)=O)c2F)n1 [encorafenib]
Outline: as §1

[3] = compound: COC(=O)[C@H](CCSC)NC(=O)C1=C(C=C(C=C1)NC[C@H](CS)N)C2=CC=CC=C2
Outline: as §1

alisertib = compound: COc1cc(Nc2ncc3c(n2)-c2ccc(Cl)cc2C(c2c(F)cccc2OC)=NC3)ccc1C(=O)O [alisertib]
Outline: as §1

[4] = compound: COc1cc2nc(-c3cc(F)ccc3O)nc(N[C@@H]3CNC[C@H]3C(C)(C)O)c2cc1OC
Outline: as §1

gefitinib = compound: COc1cc2ncnc(Nc3ccc(F)c(Cl)c3)c2cc1OCCCN1CCOCC1 [gefitinib]
Outline: as §1

lapatinib = compound: CS(=O)(=O)CCNCc1ccc(-c2ccc3ncnc(Nc4ccc(OCc5cccc(F)c5)c(Cl)c4)c3c2)o1 [lapatinib]
Outline: as §1

pictilisib = compound: CS(=O)(=O)N1CCN(Cc2cc3nc(-c4cccc5[nH]ncc45)nc(N4CCOCC4)c3s2)CC1 [pictilisib]
Outline: as §1

crizotinib = compound: C[C@@H](Oc1cc(-c2cnn(C3CCNCC3)c2)cnc1N)c1c(Cl)ccc(F)c1Cl [crizotinib]
Outline: as §1

[5] = compound: C[C@H](C1=CC=C(C=C1)C(=O)NC2=C3C=CNC3=NC=C2)N
Outline: as §1

duvelisib = compound: C[C@H](Nc1ncnc2nc[nH]c12)c1cc2cccc(Cl)c2c(=O)n1-c1ccccc1 [duvelisib]
Outline: as §1

gandotinib = compound: Cc1cc(Nc2cc(CN3CCOCC3)c3nc(C)c(Cc4ccc(Cl)cc4F)n3n2)n[nH]1 [gandotinib]
Outline: as §1

tozasertib = compound: Cc1cc(Nc2cc(N3CCN(C)CC3)nc(Sc3ccc(NC(=O)C4CC4)cc3)n2)n[nH]1 [tozasertib]
Outline: as §1

doramapimod = compound: Cc1ccc(-n2nc(C(C)(C)C)cc2NC(=O)Nc2ccc(OCCN3CCOCC3)c3ccccc23)cc1 [doramapimod]
Outline: as §1

bafetinib = compound: Cc1ccc(NC(=O)c2ccc(CN3CC[C@H](N(C)C)C3)c(C(F)(F)F)c2)cc1Nc1nccc(-c2cncnc2)n1 [bafetinib]
Outline: as §1

[6] = compound: Cc1cccc(CC(=O)N2CCc3c2ccc(-c2cn(C)c4ncnc(N)c24)c3F)n1
Outline: as §1

Measured: log2 fold change

FRA10AC1 (UniProt Q70Z53)
inactive: alvocidib -0.037 | Tubastatin A 0.014 | [1] 0.028 | defactinib -0.046 | [2] 0.026 | encorafenib 0.004 | [3] -0.042 | alisertib 0.004 | [4] 0.039 | gefitinib 0.032 | lapatinib 0.006 | pictilisib 0.005 | crizotinib 0.01 | [5] -0.014 | duvelisib -0.027 | gandotinib 0.022 | tozasertib 0.031 | doramapimod 0 | bafetinib -0.023 | [6] -0.066

GAGE2A (UniProt Q6NT46)
inactive: alvocidib 0.012 | Tubastatin A 0.03 | [1] 0.028 | defactinib 0.07 | [2] 0.062 | encorafenib -0.013 | [3] -0.081 | alisertib 0.018 | [4] -0.017 | gefitinib -0.02 | lapatinib 0.027 | pictilisib -0.091 | crizotinib -0.03 | [5] 0.017 | duvelisib 0.001 | gandotinib -0.007 | tozasertib -0.029 | doramapimod 0.025 | bafetinib -0.018 | [6] -0.022

FRYL (UniProt O94915)
inactive: alvocidib -0.004 | Tubastatin A -0.067 | [1] 0.01 | defactinib -0.016 | [2] -0.02 | encorafenib 0.032 | [3] 0.04 | alisertib 0.006 | [4] 0.005 | gefitinib 0.007 | lapatinib -0.039 | pictilisib -0.012 | crizotinib -0.055 | [5] -0.057 | duvelisib -0.048 | gandotinib -0.075 | tozasertib -0.023 | doramapimod 0.042 | bafetinib -0.059 | [6] 0.03

GFM2 (UniProt Q969S9)
inactive: alvocidib 0.012 | Tubastatin A -0.19 | [1] 0.069 | defactinib 0.033 | [2] 0.014 | encorafenib -0.007 | [3] -0.007 | alisertib 0.062 | [4] 0.033 | gefitinib 0.051 | lapatinib 0.07 | pictilisib 0.145 | crizotinib -0.007 | [5] 0.061 | duvelisib 0.03 | gandotinib -0.102 | tozasertib 0.015 | doramapimod -0.128 | bafetinib -0.071 | [6] 0.015

GCAT isoform 2 (UniProt O75600)
inactive: alvocidib 0.034 | Tubastatin A -0.007 | [1] 0.004 | defactinib -0.025 | [2] 0.031 | encorafenib 0.026 | [3] -0.031 | alisertib 0.015 | [4] -0.019 | gefitinib 0.015 | lapatinib 0.028 | pictilisib -0.095 | crizotinib 0.018 | [5] 0.014 | duvelisib 0.034 | gandotinib -0.038 | tozasertib -0.028 | doramapimod 0.027 | bafetinib 0 | [6] -0.038

FOXJ3 (UniProt Q9UPW0)
inactive: alvocidib -0.009 | Tubastatin A -0.03 | [1] -0.031 | defactinib 0.014 | [2] 0.033 | encorafenib 0.055 | [3] -0.137 | alisertib -0.028 | [4] 0 | gefitinib 0.054 | lapatinib 0.039 | pictilisib -0.049 | crizotinib -0.053 | [5] 0.101 | duvelisib 0.035 | gandotinib -0.042 | tozasertib 0.021 | doramapimod 0 | bafetinib -0.139 | [6] -0.003

GALK1 isoform 2 (UniProt P51570)
inactive: alvocidib 0.035 | Tubastatin A -0.132 | [1] -0.005 | defactinib -0.002 | [2] 0 | encorafenib 0.02 | [3] -0.171 | alisertib 0.054 | [4] -0.016 | gefitinib 0.034 | lapatinib -0.002 | pictilisib -0.02 | crizotinib -0.015 | [5] 0.092 | duvelisib -0.028 | gandotinib -0.098 | tozasertib 0.03 | doramapimod 0.039 | bafetinib -0.007 | [6] -0.013

FUCA1 (UniProt P04066)
inactive: alvocidib -0.039 | Tubastatin A 0.016 | [1] 0.034 | defactinib 0.014 | [2] 0.057 | encorafenib -0.012 | [3] -0.009 | alisertib -0.055 | [4] 0.015 | gefitinib 0.029 | lapatinib -0.015 | pictilisib 0.006 | crizotinib -0.044 | [5] -0.114 | duvelisib 0.039 | gandotinib 0.059 | tozasertib -0.018 | doramapimod 0.03 | bafetinib -0.047 | [6] 0.044

GEMIN4 (UniProt P57678)
inactive: alvocidib 0.017 | Tubastatin A -0.196 | [1] 0.078 | defactinib -0.014 | [2] -0.072 | encorafenib 0.022 | [3] 0.013 | alisertib -0.006 | [4] -0.005 | gefitinib 0.016 | lapatinib -0.031 | pictilisib -0.012 | crizotinib -0.065 | [5] -0.013 | duvelisib 0.004 | gandotinib -0.188 | tozasertib -0.009 | doramapimod 0.032 | bafetinib -0.038 | [6] 0.039

GCDH (UniProt Q92947)
inactive: alvocidib 0.018 | Tubastatin A -0.069 | [1] -0.049 | defactinib 0.004 | [2] 0.057 | encorafenib -0.049 | [3] 0.159 | alisertib 0.049 | [4] 0.006 | gefitinib -0.004 | lapatinib 0.016 | pictilisib 0.012 | crizotinib -0.017 | [5] 0.013 | duvelisib 0.19 | gandotinib -0.005 | tozasertib 0.007 | doramapimod -0.026 | bafetinib 0.047 | [6] -0.004

GCC1 (UniProt Q96CN9)
inactive: alvocidib -0.001 | Tubastatin A 0.012 | [1] -0.021 | defactinib 0.006 | [2] -0.012 | encorafenib 0.028 | [3] -0.013 | alisertib 0.062 | [4] 0.027 | gefitinib 0.011 | lapatinib -0.004 | pictilisib 0.007 | crizotinib -0.092 | [5] 0.126 | duvelisib 0.035 | gandotinib -0.083 | tozasertib 0.103 | doramapimod 0.037 | bafetinib -0.054 | [6] 0.009

GALNT5 (UniProt Q7Z7M9)
inactive: alvocidib -0.011 | Tubastatin A 0.044 | [1] 0.01 | defactinib 0.015 | [2] -0.045 | encorafenib 0.041 | [3] -0.018 | alisertib 0.025 | [4] -0.026 | gefitinib 0.008 | lapatinib -0.034 | pictilisib -0.027 | crizotinib 0.01 | [5] -0.018 | duvelisib -0.046 | gandotinib 0.025 | tozasertib 0.028 | doramapimod 0.003 | bafetinib 0.015 | [6] 0.066

G3BP1 (UniProt Q13283)
inactive: alvocidib -0.039 | Tubastatin A 0.023 | [1] -0.006 | defactinib 0.026 | [2] -0.016 | encorafenib 0.009 | [3] 0.045 | alisertib 0.028 | [4] -0.012 | gefitinib -0.005 | lapatinib -0.001 | pictilisib -0.011 | crizotinib 0.007 | [5] -0.106 | duvelisib 0.02 | gandotinib 0.053 | tozasertib -0.005 | doramapimod -0.004 | bafetinib 0.032 | [6] 0.071

GET4 (UniProt Q7L5D6)
inactive: alvocidib 0.015 | Tubastatin A -0.057 | [1] -0.016 | defactinib 0.019 | [2] -0.012 | encorafenib -0.016 | [3] 0.17 | alisertib 0.015 | [4] -0.003 | gefitinib -0.039 | lapatinib -0.013 | pictilisib -0.054 | crizotinib -0.034 | [5] -0.022 | duvelisib 0.064 | gandotinib -0.128 | tozasertib 0.006 | doramapimod -0.038 | bafetinib -0.062 | [6] 0.019

GFPT1 (UniProt Q06210)
inactive: alvocidib 0.022 | Tubastatin A -0.075 | [1] 0.011 | defactinib 0.01 | [2] 0.012 | encorafenib -0.012 | [3] 0.134 | alisertib 0.005 | [4] 0.007 | gefitinib -0.013 | lapatinib -0.001 | pictilisib -0.026 | crizotinib -0.033 | [5] 0.009 | duvelisib -0.002 | gandotinib -0.066 | tozasertib -0.013 | doramapimod -0.001 | bafetinib -0.031 | [6] 0.007

2 entries picked at random from the list so far:
G3BP1 (UniProt Q13283)
inactive: alvocidib -0.039 | Tubastatin A 0.023 | [1] -0.006 | defactinib 0.026 | [2] -0.016 | encorafenib 0.009 | [3] 0.045 | alisertib 0.028 | [4] -0.012 | gefitinib -0.005 | lapatinib -0.001 | pictilisib -0.011 | crizotinib 0.007 | [5] -0.106 | duvelisib 0.02 | gandotinib 0.053 | tozasertib -0.005 | doramapimod -0.004 | bafetinib 0.032 | [6] 0.071

GALNT5 (UniProt Q7Z7M9)
inactive: alvocidib -0.011 | Tubastatin A 0.044 | [1] 0.01 | defactinib 0.015 | [2] -0.045 | encorafenib 0.041 | [3] -0.018 | alisertib 0.025 | [4] -0.026 | gefitinib 0.008 | lapatinib -0.034 | pictilisib -0.027 | crizotinib 0.01 | [5] -0.018 | duvelisib -0.046 | gandotinib 0.025 | tozasertib 0.028 | doramapimod 0.003 | bafetinib 0.015 | [6] 0.066

(next part)

GABARAPL2 (UniProt P60520)
inactive: alvocidib 0.007 | Tubastatin A 0.072 | [1] -0.017 | defactinib 0.008 | [2] 0.003 | encorafenib -0.029 | [3] -0.071 | alisertib -0.027 | [4] 0.011 | gefitinib 0.015 | lapatinib -0.02 | pictilisib 0.004 | crizotinib 0.031 | [5] -0.005 | duvelisib 0.018 | gandotinib 0.005 | tozasertib 0.024 | doramapimod -0.008 | bafetinib -0.022 | [6] -0.043
